Data reported in PMC7819943, “Rice protein-binding microarrays: a tool to detect cis-acting elements near promoter regions in rice”.
The list shows a part of the results.

Each sequence was assayed against T1, OsSMF1 (Oryza sativa, UniProt Q6ZLB0 1-436) (assay: protein-binding microarray (RPBM); PBS, 2% BSA, 51.3 ng/ul salmon testes DNA, 50 uM zinc acetate, 200 nM TF, 25 C, 1 h; high values mean tight binding). Conditions: protein: recombinant; tags: N-terminal polyhistidine and DsRed monomer fusion (pET32a); chain copies: 2; label: CyDye5-dUTP incorporated in the synthesized complementary strand; 3' TTTTT single-stranded linker to array surface; dsDNA, one strand shown.
T1 sequence: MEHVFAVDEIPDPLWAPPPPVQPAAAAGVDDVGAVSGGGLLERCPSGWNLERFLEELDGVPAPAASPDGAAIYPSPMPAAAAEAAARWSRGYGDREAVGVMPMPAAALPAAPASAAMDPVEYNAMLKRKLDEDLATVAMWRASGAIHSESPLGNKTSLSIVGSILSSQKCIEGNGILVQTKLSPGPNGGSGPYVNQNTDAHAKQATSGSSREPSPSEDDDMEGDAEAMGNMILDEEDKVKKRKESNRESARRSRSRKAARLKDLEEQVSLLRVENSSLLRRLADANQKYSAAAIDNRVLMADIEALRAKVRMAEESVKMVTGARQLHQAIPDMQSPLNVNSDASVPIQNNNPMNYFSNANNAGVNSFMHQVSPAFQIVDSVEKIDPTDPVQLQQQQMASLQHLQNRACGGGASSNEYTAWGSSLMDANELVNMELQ
In short: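 Transcription factors were made in E. coli BL21-CodonPlus as N-terminal fusions to a polyhistidine tag and DsRed, then purified on Ni–NTA. After primer extension with Cy5-dUTP and blocking with 2% BSA, a custom Agilent array was exposed for 1 h at 25 °C to 200 nM protein in PBS, 2% BSA, salmon testes DNA and 50 µM zinc acetate. Washed arrays were scanned on an Axon 4000B, and the binding signal is per-feature fluorescence intensity in arbitrary units.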

Sequence | binding signal
CCACAGGAGAGGACGCACGTCAAGTGGTCGTCGACGAGACCGGAGTCACCTAGTGCAG | 3550 fluorescence intensity (a.u.)
TAGCCCGTCACTGATGAGTCATCTGTGACGGGCCTAGCTGCGGAGTCACCTAGTGCAG | 11500 fluorescence intensity (a.u.)
ATCATAAATACGTGCAAAATTTCACCATACCAATATTAACCGGAGTCACCTAGTGCAG | 28500 fluorescence intensity (a.u.)
TCTTTGCAAGGATTTTGAACAGTCAGCAGTGCACAAACAACGGAGTCACCTAGTGCAG | 4940 fluorescence intensity (a.u.)
GTATGGAGCTCCCTCCTCGCCCGCCTTCCCTCGCTCTCGGCGGAGTCACCTAGTGCAG | 23100 fluorescence intensity (a.u.)
TAACTGCGTTGACTGTACCCAGATCAGTTTGCTAAACGTTCGGAGTCACCTAGTGCAG | 3600 fluorescence intensity (a.u.)
GCTACCAGCCCACGTGCCACTACAGTAGCCGTGCCGGCCCCGGAGTCACCTAGTGCAG | 4970 fluorescence intensity (a.u.)
AGGAGACGAGAGAGAGAGAGGGGAGGGGAGTGTGATGTGGCGGAGTCACCTAGTGCAG | 8030 fluorescence intensity (a.u.)
ATGTAATCTAGAATATGTCATATCCCTCCAAAATCATCTACGGAGTCACCTAGTGCAG | 3600 fluorescence intensity (a.u.)
CCTACCAGTTGAGCTATCCACTGTTTCTAGTCAGCATATTCGGAGTCACCTAGTGCAG | 4620 fluorescence intensity (a.u.)
ATAAGGGAAGCCGCATCAGAATTTACGATGCCGATAACGGCGGAGTCACCTAGTGCAG | 3700 fluorescence intensity (a.u.)
CACTCACAAGAGAGTAAGTGAGCTAGCGAGTCACAGGTTTCGGAGTCACCTAGTGCAG | 3690 fluorescence intensity (a.u.)
CTAAGTGACACCTCACTCCAACTTTAAGGACCGGCTGTGTCGGAGTCACCTAGTGCAG | 5750 fluorescence intensity (a.u.)
GTGTCCTCAATTGAATTGACTCAATTCAATGGCTACCATACGGAGTCACCTAGTGCAG | 4900 fluorescence intensity (a.u.)
CCGGCGGGTGAGAAAAGTTTCGGGCGGGGTCAGCGACGGTCGGAGTCACCTAGTGCAG | 3670 fluorescence intensity (a.u.)
GACCGACTTTGACATCAGTAGAACACTAGTTGCCACATGTCGGAGTCACCTAGTGCAG | 3450 fluorescence intensity (a.u.)
TCGAAGGATCAAAATCGGATTCGGTGTCAACTTAAGGGACCGGAGTCACCTAGTGCAG | 15500 fluorescence intensity (a.u.)
CAAAACCGCCGGTAACCGCCCTTACCACGGGGTATAGTAACGGAGTCACCTAGTGCAG | 16600 fluorescence intensity (a.u.)
TAAGTCTGGTAAAGTTTTACTGTGCCCACGTAATATCATACGGAGTCACCTAGTGCAG | 28600 fluorescence intensity (a.u.)
AACAACAACAACGCATTGCAAAGCAAGGAGAAATCCGAAGCGGAGTCACCTAGTGCAG | 14400 fluorescence intensity (a.u.)
GTGGGTGAAACCTCTTACTACGTGTGTGGTTTAGTTGAAACGGAGTCACCTAGTGCAG | 24000 fluorescence intensity (a.u.)

Reformatted tab-delimited: part of the list above.
Sequence	binding signal
TCGAAGGATCAAAATCGGATTCGGTGTCAACTTAAGGGACCGGAGTCACCTAGTGCAG	15500 fluorescence intensity (a.u.)
CAAAACCGCCGGTAACCGCCCTTACCACGGGGTATAGTAACGGAGTCACCTAGTGCAG	16600 fluorescence intensity (a.u.)
TAAGTCTGGTAAAGTTTTACTGTGCCCACGTAATATCATACGGAGTCACCTAGTGCAG	28600 fluorescence intensity (a.u.)
AACAACAACAACGCATTGCAAAGCAAGGAGAAATCCGAAGCGGAGTCACCTAGTGCAG	14400 fluorescence intensity (a.u.)

Additional results:

Sequence | binding signal
CCACTCATATGTCAATGACACGTGGGGTCCACACGCGTCTCGGAGTCACCTAGTGCAG | 20600 fluorescence intensity (a.u.)
TTTTCAAGACGTCAACGCCAACCACGTTGGCATCAACGTCCGGAGTCACCTAGTGCAG | 6550 fluorescence intensity (a.u.)
GAGGGGAAAGAGAAAGGTGTTGGCGTGGCATCCTGACATTCGGAGTCACCTAGTGCAG | 8550 fluorescence intensity (a.u.)
AATATAAACAACACGTCAGAGATCAGACACCCACCTCTCCCGGAGTCACCTAGTGCAG | 11100 fluorescence intensity (a.u.)
CAAGGCGGCCCAACCATCTTCGAAATGCGGCCCATGACGACGGAGTCACCTAGTGCAG | 39100 fluorescence intensity (a.u.)
AACTTGATGTTGATGGGCGTCATCCAGTTCAAACAAATACCGGAGTCACCTAGTGCAG | 3420 fluorescence intensity (a.u.)
CAGTAATTGTCACTATCTTATTACACATTATTCTGTCCAGCGGAGTCACCTAGTGCAG | 3340 fluorescence intensity (a.u.)
CCCGCGCCGAGGCCATGTGGTGCCTCCTCTCCTGTGATCTCGGAGTCACCTAGTGCAG | 3360 fluorescence intensity (a.u.)
TGCAGCCCTTGTAGAGAGCGGCAAGGGACTATTTGTGTAACGGAGTCACCTAGTGCAG | 10000 fluorescence intensity (a.u.)
CATCGGCTGACATCGACGTCGGCTCTTTGTTGATCATCATCGGAGTCACCTAGTGCAG | 5440 fluorescence intensity (a.u.)
CAACGATATATATACCACCTGCCACCCCTTCTTCTCCTCTCGGAGTCACCTAGTGCAG | 3300 fluorescence intensity (a.u.)
TGGATCGAATTGCCATGTAACCACCATGTTACTGCCACGTCGGAGTCACCTAGTGCAG | 11100 fluorescence intensity (a.u.)
GAGTGTTCTTGTCAGTTGTCACCACTCTCTTTCTCTTCTTCGGAGTCACCTAGTGCAG | 3180 fluorescence intensity (a.u.)
TTCAAAATGTTTATTACAGCTCATACAGTTTTATTGCTGCCGGAGTCACCTAGTGCAG | 6240 fluorescence intensity (a.u.)
CGAGCCCATTATTTACTGGCCGTCTGGCCCTCATTTGGTCCGGAGTCACCTAGTGCAG | 3150 fluorescence intensity (a.u.)
CTCTCCTTGTAGGCATGTCATCGAACACGTGGCATGCGTCCGGAGTCACCTAGTGCAG | 16000 fluorescence intensity (a.u.)
CATGCGTGCAGCGTTGGGTCTGGGACGGCACACGTGGAGCCGGAGTCACCTAGTGCAG | 6150 fluorescence intensity (a.u.)
TCTTATGCAAGTGTTTGTTTCGTCACCAAAATTGTGGCATCGGAGTCACCTAGTGCAG | 3690 fluorescence intensity (a.u.)
TCAGGACTGCCACACGTACGCCACGTAGACCAAAATCGCCCGGAGTCACCTAGTGCAG | 22700 fluorescence intensity (a.u.)
AGTACTCTTGTTGGAGCACAAACAAGCTAACAGCTGGCTACGGAGTCACCTAGTGCAG | 23400 fluorescence intensity (a.u.)
ATCAGCGCGCCACGTGTGAAGACGGGGCTCCGTTACGTGGCGGAGTCACCTAGTGCAG | 15500 fluorescence intensity (a.u.)
